Laboratory results taken from US20040162413A1 (published 2004).
Residue numbers refer to the chain shown, from its start. Results are given in words; binding and its absence hold for the method and conditions named. Some results given as binding are weak or reduced against the parent protein; the word gives no strength. Each block holds one binder with its values, some of them ahead of it.

Amino acid sequences for entries named in this document (tags omitted). Residues count along the entry.
UniProt P04275, residues 764-2813: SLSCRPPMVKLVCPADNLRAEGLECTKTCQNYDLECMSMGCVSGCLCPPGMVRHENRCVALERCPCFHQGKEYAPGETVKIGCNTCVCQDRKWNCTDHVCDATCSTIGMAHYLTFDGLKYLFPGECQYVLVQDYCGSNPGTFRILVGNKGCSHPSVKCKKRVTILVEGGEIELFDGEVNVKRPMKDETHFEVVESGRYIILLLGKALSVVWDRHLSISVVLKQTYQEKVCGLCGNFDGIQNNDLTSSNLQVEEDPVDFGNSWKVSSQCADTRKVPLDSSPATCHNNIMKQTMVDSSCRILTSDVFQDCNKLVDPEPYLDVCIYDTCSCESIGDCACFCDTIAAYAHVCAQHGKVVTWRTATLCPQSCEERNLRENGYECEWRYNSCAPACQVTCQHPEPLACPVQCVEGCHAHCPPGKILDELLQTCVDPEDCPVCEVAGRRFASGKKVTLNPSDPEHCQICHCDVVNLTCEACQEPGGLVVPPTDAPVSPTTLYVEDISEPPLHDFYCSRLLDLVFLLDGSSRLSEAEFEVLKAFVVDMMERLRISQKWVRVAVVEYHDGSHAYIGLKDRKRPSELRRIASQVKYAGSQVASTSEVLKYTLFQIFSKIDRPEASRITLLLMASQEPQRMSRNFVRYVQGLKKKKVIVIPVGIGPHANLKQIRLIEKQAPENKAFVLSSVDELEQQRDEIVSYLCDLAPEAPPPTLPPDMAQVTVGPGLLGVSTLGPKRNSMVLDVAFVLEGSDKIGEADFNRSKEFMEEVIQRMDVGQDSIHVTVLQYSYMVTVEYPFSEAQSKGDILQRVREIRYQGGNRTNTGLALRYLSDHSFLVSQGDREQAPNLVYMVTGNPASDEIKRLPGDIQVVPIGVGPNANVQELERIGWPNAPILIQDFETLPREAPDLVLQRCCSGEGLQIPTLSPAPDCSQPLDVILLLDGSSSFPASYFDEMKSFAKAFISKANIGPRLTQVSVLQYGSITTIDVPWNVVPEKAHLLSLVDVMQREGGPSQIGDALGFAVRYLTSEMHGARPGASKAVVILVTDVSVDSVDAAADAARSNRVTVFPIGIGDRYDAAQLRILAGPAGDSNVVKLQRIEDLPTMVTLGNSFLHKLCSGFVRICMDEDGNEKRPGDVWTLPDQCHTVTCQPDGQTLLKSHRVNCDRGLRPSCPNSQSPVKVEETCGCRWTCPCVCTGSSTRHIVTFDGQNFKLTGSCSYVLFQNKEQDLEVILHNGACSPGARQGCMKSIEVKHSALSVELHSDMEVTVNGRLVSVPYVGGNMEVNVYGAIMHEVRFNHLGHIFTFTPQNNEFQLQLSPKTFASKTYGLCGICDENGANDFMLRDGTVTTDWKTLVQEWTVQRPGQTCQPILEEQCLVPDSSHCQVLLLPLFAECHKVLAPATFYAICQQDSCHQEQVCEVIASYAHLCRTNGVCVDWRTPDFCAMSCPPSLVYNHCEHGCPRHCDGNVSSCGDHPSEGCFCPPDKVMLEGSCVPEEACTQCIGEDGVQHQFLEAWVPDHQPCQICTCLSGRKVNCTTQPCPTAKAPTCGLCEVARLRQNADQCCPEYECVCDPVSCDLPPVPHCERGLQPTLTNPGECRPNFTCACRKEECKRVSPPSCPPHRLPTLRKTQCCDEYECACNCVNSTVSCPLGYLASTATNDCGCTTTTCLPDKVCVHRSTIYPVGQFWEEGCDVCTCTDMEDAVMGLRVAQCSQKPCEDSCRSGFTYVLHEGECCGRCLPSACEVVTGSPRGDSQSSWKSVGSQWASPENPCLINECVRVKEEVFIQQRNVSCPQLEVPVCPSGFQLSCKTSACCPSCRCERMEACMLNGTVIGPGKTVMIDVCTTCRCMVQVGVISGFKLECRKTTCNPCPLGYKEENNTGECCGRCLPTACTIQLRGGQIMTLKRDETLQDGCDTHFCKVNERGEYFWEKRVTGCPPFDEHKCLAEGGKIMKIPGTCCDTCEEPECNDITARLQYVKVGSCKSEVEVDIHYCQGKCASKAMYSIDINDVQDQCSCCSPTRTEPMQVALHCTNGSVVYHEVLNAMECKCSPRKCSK

Columns and labels:
[1] = molecular target: T1, human von Willebrand Factor (human, UniProt P04275 764-2813); test: filter lift and ELISA of periplasmic Fab on captured human vWF
T1 construct: In the ELISA captured on plates by goat anti-human vWF; biotinylated in the plaque lift; also called vWF; human vWF

[2] = molecular target: T1, human von Willebrand Factor; test: ELISA: human vWF captured on goat anti-human vWF coated plates, Fab dilutions, goat anti-human kappa alkaline phosphatase, O.D. 560 after 30 min
[3] = molecular target: T1, human von Willebrand Factor; test: vWF ELISA (FIG. 6), reference

binding [1]: binds
binding [2]: binds
B1: anti-vWF combinatorial library clone C1 Fab (Fab, V domains shown)
VH: EVQLVESGGGLVQPGGSLRLSCAASGFSLGDYGVDWVRQAPGKGLEWVGMIWPDGSTDYNSALQSRFTISRDDSKNSLYLQMNSLKTEDTAVYYCARDPADYGNYNYALDYWGQGTTVTVS
VL: DIQMTQSPSSLSASVGDRVTITCSASQDINDYLNWYQQKPGKAPKLLIYNTSSLHSGVPSRFSGSGSGTDFTLTISSLQPEDFATYYCQQYEDLPWTFGGGTKVEIK
notes: Fab with human CL and CH1

binding [1]: binds
binding [2]: binds
B2: anti-vWF combinatorial library clone C9 Fab (Fab, V domains shown)
VH: B1 VH with Y59V, Q64K, N106D
VL: B1 VL with S56V

binding [1]: binds
B3: anti-vWF combinatorial library clone C7 Fab (Fab, V domains shown)
VH: B1 VH with Y59I, Q64K, P99W
VL: B1 VL

binding [1]: binds
binding [2]: binds
B4: anti-vWF combinatorial library clone C8 Fab (Fab, V domains shown)
VH: B1 VH with Y59V
VL: B1 VL with S53V

binding [1]: binds
binding [2]: binds
B5: anti-vWF combinatorial library clone C4 Fab (Fab, V domains shown)
VH: B1 VH with P53G, T57V, Y59V
VL: B1 VL with N50G
notes: Fab with human CL and CH1

binding [3]: binds
binding [2]: binds
B6: NMC-4 antibody (parental/donor antibody) (antibody, V domains shown)
VH: VQLLESGPGLVAPSQSLSITCTVSGFSLTDYGVDWVRQPPGKGLEWLGMIWGDGSTDYNSALKSRLSITKDNSKSQVFLKMNSLQTDDTARYYCVRDPADYGNYDYALDYWGQGTSVTVS
VL: SSLSASLGDRVTISCSASQDINKYLNWYQQKPDGAVKLLIFYTSSLHSGVPSRFSGSGSGTDYSLTISNLEPEDIATYYCQQYEKLPWTFGGGTKLEVK
notes: also called parental/donor NMC-4 antibody
